# Assay results published in patent publication US20170260284A1 (NATIONAL CANCER CENTER, published 2017).
# Results are given in words; binding and its absence hold for the method and conditions named. Some entries that bind do so weakly or less than the wild type.
# B1: rat IgM antibody clone 98 (anti-TMEM-180 antibody clone 98) (antibody, V domains shown)
# VH: QVQLKESGPGLVQPSQTLSLTCTVSGFSLTRYNVHWVRQPTGKGLEWMGVIWTGGSTDYNSALKSRLSISRDTSKSQVFLKMNSLQTEDIATYYCARDLGYWGQGVMVTVSS
# VL: DIVMTQTPLSLSVAIGQSASISCKSSQSLKYRDGKTYLNWVFQSPGQSPKRLIYQVSKLDSGVPDRFSGTGSETDFTLKISRVEAEDLGVYYCCQGSYSPHTFGAGTKLELK
# notes: Rat IgM from hybridoma, used as culture supernatant; also called IgM 98; Anti-TMEM-180 IgM rat antibody (clone 98)
# Legend:
# [1] = biological target: T1, TMEM-180 protein in cancer cell culture supernatant or human plasma (human) (UniProt Q14CX5); assay: direct ELISA, culture supernatant immobilized, IgM 98 at 10 ug/mL
# T1 sequence: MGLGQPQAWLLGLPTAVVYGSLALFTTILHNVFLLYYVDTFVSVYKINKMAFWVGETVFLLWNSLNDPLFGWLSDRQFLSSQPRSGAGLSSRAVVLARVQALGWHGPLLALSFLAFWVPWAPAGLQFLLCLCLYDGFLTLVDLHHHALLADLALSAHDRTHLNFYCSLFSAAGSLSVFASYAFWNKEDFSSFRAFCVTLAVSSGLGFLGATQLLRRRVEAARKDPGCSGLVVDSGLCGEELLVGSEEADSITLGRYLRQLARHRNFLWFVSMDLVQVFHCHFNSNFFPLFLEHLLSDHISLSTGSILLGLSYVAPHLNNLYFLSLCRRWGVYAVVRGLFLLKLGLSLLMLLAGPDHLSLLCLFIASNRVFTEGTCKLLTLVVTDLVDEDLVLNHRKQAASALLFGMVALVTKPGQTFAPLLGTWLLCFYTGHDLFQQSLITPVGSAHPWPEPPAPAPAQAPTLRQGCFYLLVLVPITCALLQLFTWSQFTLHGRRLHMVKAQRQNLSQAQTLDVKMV
# [2] = biological target: T1, TMEM-180 protein in cancer cell culture supernatant or human plasma (human); assay: direct ELISA, diluted human plasma immobilized, IgM 98 at 10 ug/mL
binder,measurement,setting,value
B1,binding,[1],binds
same,binding,[2],binds
